Measured values taken from PubChem BioAssay AID504467 (National Center for Advancing Translational Sciences (NCATS), 2011).
The campaign covered roughly 330,000 compounds. About 7,700 (2.3%) were called active. Inconclusive results, whose numbers are uncertain, are shown with a selection of clear calls. Calls follow the shape of the dose curve; as a rule, active = well fitted inhibition curve with a large enough effect; inconclusive = small, poorly fitted or top-dose-only effect, or effect the other way; inactive = flat fitted curve, though single readings scatter. Potencies beside an inconclusive call are fits to weak or partial responses and may not hold up.

Assay: qHTS screen for small molecules that inhibit ELG1-dependent DNA repair in human embryonic kidney (HEK293T) cells expressing luciferase-tagged ELG1; also: nearly all actives have a fitted effect of over 55% in size
Details: HEK293T ELG1-luciferase reporter, luminescence, 16 h, DNA damage induced by 5-fluorouridine; activity change, negative = inhibition: at 46.1 µM (top of the series)
Method in brief: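 HEK293T cells expressing luciferase-tagged ELG1 (2,000/well) received 5-Fluorouridine plus compound or DMSO for 16 hr at 37 °C. Luciferase was read by ONE-Glo luminescence after 30 min at room temperature.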
% is scaled to controls: 0 for no effect and ±100 for the full control effect; potency is read from the fitted curve at half-maximal effect.

Compound	Potency	activity change, negative = inhibition
O=C(Cc1ccc(S(=O)(=O)N2CCOCC2)s1)Nc1cc(C(F)(F)F)cc(C(F)(F)F)c1	active: 20.6 µM	
CCOC(=O)C1CCCN(Cc2nc(N)nc(Nc3ccc(C)cc3)n2)C1 (stereo not drawn)	inconclusive: 35.5 µM [inhibitor, single point]	
O=C(Nc1ccccc1F)C1CCCN1S(=O)(=O)c1ccc(Cl)cc1 (stereo not drawn)		inactive: -5.56%
COc1cc(O)oc1C=Nc1ccc(C(=O)O)cc1		inactive: 2.84%
CC(C)c1nc2sc3c(c2c(=O)[nH]1)CC(C)(C)OC3		inactive: 14.6%
CN(Cc1ncc[nH]1)Cc1cn(-c2ccccc2)nc1-c1ccc2c(c1)OCO2		inactive: 18.8%
COC(=O)c1ccc(N2Cc3ccccc3/C2=N\C(=O)Nc2ccccc2)cc1	inconclusive: 2.59 µM [inhibitor, full curve]	
FC(F)(F)c1ccccc1NC(=S)N1CCN(c2ncccn2)CC1	inconclusive: 20.6 µM [inhibitor, partial curve, poor fit]	
COC(c1ccccc1)c1nnc(CCC(=O)N(C)CCCC2CCCC2)o1 (stereo not drawn)	inconclusive: 18.3 µM [activator, partial curve]	
CCn1c(SCC(=O)Nc2nnc(C)s2)nnc1C(C)NC(=O)c1ccccc1 (stereo not drawn)	inconclusive: 20.6 µM [activator, partial curve, poor fit]	
C[C@@H]1COC(=O)[C@H](Cc2ccc(F)cc2)C/C=C\C[C@@H](CC(=O)N[C@H](CO)Cc2ccccc2)C(=O)N1	inconclusive: 18.3 µM [activator, partial curve, poor fit]	
CCN(CC)CCSc1nnc2c3ccccc3n(Cc3ccccc3)c2n1	inconclusive: 0.58 µM [inhibitor, single point]	
CC1CCCN(Cc2ccc(OCc3ccccc3)cc2)C1 (stereo not drawn)	inconclusive: 20.6 µM [activator, single point]	
COc1cc(NC(=O)c2cc3ccccc3o2)c(OC)cc1Br		inactive: 14.4%
O=C(NCc1c(Cl)cccc1Cl)c1ccc2nnsc2c1	inconclusive: 20.6 µM [inhibitor, partial curve, poor fit]	
O=C(Nc1ccc(Cl)c(S(=O)(=O)N2CCOCC2)c1)c1cccs1	active: 25.9 µM	
CC(Sc1nc2ccccc2o1)C(=O)O (stereo not drawn)	inconclusive: 14.1 µM [activator, single point]	
Cc1ccc(CN2CC(C(=O)OCc3ccccc3Cl)CC2=O)cc1 (stereo not drawn)		inconclusive: 33.6% [activator]
Cc1cc(C)nc(NNS(=O)(=O)c2c(F)cc(F)cc2Br)n1		inactive: 28.1%
O=C(COC(=O)c1cc(=O)[nH]c2ccccc12)Nc1ccc(F)cc1		inactive: 3.56%
CCOC(=O)N1CCN(S(=O)(=O)c2ccc(C)c(C(=O)NC3CCCCC3)c2)CC1		inactive: -16.9%
COC(=O)c1cc(S(=O)(=O)N2CCN(c3cccc(C)c3C)CC2)c[nH]1		inactive: -7.4%

3 entries out of the list, arranged by formula weight, falling.
Compound	Potency	activity change, negative = inhibition
COC(=O)c1ccc(N2Cc3ccccc3/C2=N\C(=O)Nc2ccccc2)cc1	inconclusive: 2.59 µM [inhibitor, full curve]	
CCOC(=O)C1CCCN(Cc2nc(N)nc(Nc3ccc(C)cc3)n2)C1 (stereo not drawn)	inconclusive: 35.5 µM [inhibitor, single point]	
CC(Sc1nc2ccccc2o1)C(=O)O (stereo not drawn)	inconclusive: 14.1 µM [activator, single point]	

Later entries:

Compound	Potency	activity change, negative = inhibition
Cc1ccc(NC(=O)c2cccs2)cc1NC(=O)c1cccnc1		inactive: -26.4%
C/C(=N\NC(=O)c1c(Cl)c(C)nn1C)c1cccc(NC(=O)COc2ccc(Cl)cc2)c1	active: 16.4 µM	
CC(=O)N(CC1CCCO1)c1nnc(-c2ccccn2)s1 (stereo not drawn)	inconclusive: 35.5 µM [activator, single point]	
Cc1ccc(-n2c(C)cc(C(=O)COC(=O)c3c(C)noc3C)c2C)cc1	inconclusive: 13 µM [activator, partial curve]	
C/C(CC(=O)Nc1ccc2c(c1)OCCO2)=N\NC(=O)c1ccccn1	inconclusive: 23.1 µM [activator, partial curve]	
O=C1C2CC=CCC2C(=O)N1c1cccc(OS(=O)(=O)c2ccc3ccccc3c2)c1 (stereo not drawn)	inconclusive: 32.6 µM [inhibitor, single point]	
Cc1nn(-c2ccccc2)c2sc(C(=O)N3CCc4ccccc4C3)cc12	inconclusive: 23.1 µM [inhibitor, partial curve]	
O=C(COc1ccc2c3c(c(=O)oc2c1)CCC3)NCCCN1CCOCC1	inconclusive: 29.1 µM [activator, single point]	
CCOC(=O)c1ccc2[nH]c3c(c2c1)CCCC3	inconclusive: 3.26 µM [activator, partial curve, poor fit]	
Cc1ccc(NC(=O)[C@H](Cc2ccccc2)NC(=O)C2CCNCC2)cc1	inconclusive: 16.4 µM [activator, partial curve, poor fit]	
O=Cc1c(-c2ccccc2)nc2ccccn12	inconclusive: 29.1 µM [activator, partial curve, poor fit]	
O=C(N/N=C/c1ccsc1)c1ccc2ccccc2n1	inconclusive: 16.4 µM [activator, partial curve]	
O=C(/C=C/c1ccccc1)N1CCN(c2ccc([N+](=O)[O-])c(N3CCOCC3)c2)CC1	inconclusive: 25.9 µM [inhibitor, single point]	
Cc1ccc(S(=O)(=O)Nc2cccc(-c3ccc4nnc(C)n4n3)c2)s1	inconclusive: 20.6 µM [activator, partial curve]	
CS(=O)(=O)c1ccccc1C(=O)Nc1ccc(-c2nc3ccccc3o2)cc1	inconclusive: 4.61 µM [activator, full curve]	
Cc1cc(C)n(CC(=O)N/N=C/c2cc(Br)cc([N+](=O)[O-])c2O)n1	inconclusive: 16.4 µM [inhibitor, single point]	
O=C(NCc1cccc(Cl)c1)c1cccc(OC2CCN(C(=O)C3CC3)CC2)c1	inconclusive: 23.1 µM [inhibitor, partial curve, poor fit]	
CCOC(=O)/C(=C\c1ccc(Cl)cc1)c1nc2sc(C)c(C)c2c(=O)[nH]1	inconclusive: 32.6 µM [inhibitor, single point]	
O=C(CNC(=O)c1ccc(Cl)cc1Cl)OCN1C(=O)c2ccccc2C1=O		inactive: 11.9%
Cc1nc2c(-c3ccc(F)cc3)c(C)nn2c(C)c1CCC(=O)N1CCN(c2ccc(F)cc2)CC1	inconclusive: 18.4 µM [inhibitor, single point]	
COC(=O)c1cc(=O)n(Cc2ccc(F)cc2)c(=Nc2ccccc2)s1	inconclusive: 16.4 µM [inhibitor, single point]	
